In PubChem BioAssay AID504648 (National Center for Advancing Translational Sciences (NCATS), 2011):
Among all 390,000 compounds or so, about 610 (0.16%) were called active. Inconclusive results, whose numbers are uncertain, are shown with a selection of clear calls. Calls follow the shape of the dose curve; as a rule, active = well fitted inhibition curve with a large enough effect; inconclusive = small, poorly fitted or top-dose-only effect, or effect the other way, or another doubt; inactive = no such curve, though single readings can be large or run the other way. Where the call is inconclusive, the potency comes from a doubtful curve fit.

test: Nrf2 qHTS screen for inhibitors: counterscreen for cytotoxicity; conditions: A549 ARE-Fluc cells, CellTiter-Fluor viability, 18-24 h; activity change, negative = cytotoxicity: at 46 µM (top of the series)
Summary of the method: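 Cytotoxicity counterscreen: CellTiter-Fluor fluorescence was measured in A549 ARE_Fluc cells after 18-24 h of compound exposure in a concentration series. The subsequent BugLite luminescent read reports ARE-luciferase activity.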
% is scaled to controls: 0 for no effect and ±100 for the full control effect; potency is read from the fitted curve at half-maximal effect.

| Compound | activity change, negative = cytotoxicity | Potency |
| --- | --- | --- |
| COCCn1c(Br)nc2c1c(=O)n(C)c(=O)n2C | inactive: 2.15% | – |
| CCN1C(=O)CC(C(C)C)N(C2CCCC2)c2nc(Nc3ccc(C(=O)NC4CCN(C)CC4)cc3OC)ncc21 (configuration not stated) | – | inconclusive: 18.4 µM [falling, single point] |
| C[C@H](CO)N1C[C@H](C)[C@@H](CN(C)C(=O)Nc2ccccc2)Oc2c(NC(=O)Nc3ccc(C(F)(F)F)cc3)cccc2C1=O | – | inconclusive: 29.1 µM [falling, single point] |
| CC(SCC(=O)Nc1ccccc1)c1nc2ccccc2c(=O)[nH]1 (configuration not stated) | – | inconclusive: 3.26 µM [activator, partial curve, poor fit] |
| Cc1cccc(-n2c(SCC(=O)N3CC(=O)Nc4ccccc43)nc3ccccc3c2=O)c1C | inactive: -29.3% | – |
| CCOC(=O)c1cc2oc(C(c3nnnn3C3CCCCC3)N3CCOCC3)cc2[nH]1 (configuration not stated) | – | inconclusive: 29.1 µM [falling, single point] |
| COc1ccc(-c2c(C)oc3cc(O)cc(O)c3c2=O)cc1OC | – | inconclusive: 16.4 µM [falling, single point] |
| CCN1CCN(c2ccc(Cl)cc2NC(=O)c2ccc(-n3nc(C)cc3C)cc2)CC1 | – | inconclusive: 29.1 µM [falling, single point] |
| Cc1ccc(SCC(=O)Nc2ccc(-c3nc4ccccc4[nH]3)cc2)cc1 | – | inconclusive: 16.4 µM [falling, partial curve, poor fit] |
| CCOc1ccc(/C=C(\C#N)C(=O)Nc2cccnc2)cc1 | inactive: -1.7% | – |
| O=C(Nc1ccc(NS(=O)(=O)c2ccccc2)cc1)c1ccc(Cl)cc1 | inactive: -2.14% | – |
| CCOC(=O)c1c(C)nc2sc(C(=O)Nc3ccc(OC)cc3)c(N)c2c1-c1ccc(OC)cc1 | – | inconclusive: 5.17 µM [falling, partial curve, poor fit] |
| CNc1ccc(N=Nc2cccc3ncccc23)cc1 | – | inconclusive: 32.6 µM [falling, partial curve, poor fit] |
| N=C(N)SCc1ccccc1Cl | – | inconclusive: 7.31 µM [falling, partial curve, poor fit] |
| COCCNC(=O)CN(CCc1ccccc1)S(=O)(=O)c1ccc(OC)cc1 | inactive: -10.9% | – |
| Cc1ccc2c(c1)c1ccc3c(c1n2C)C(=O)C=CC3=O | – | inconclusive: 20.6 µM [falling, single point] |
| Clc1ccc(N2CCN(c3ncnc4c3nc3n4CCCC3)CC2)cc1 | inactive: -4.44% | – |
| CCCc1cc(C(=O)N/N=C/c2ccc(C)o2)c2ccccc2n1 | – | inconclusive: 18.4 µM [falling, partial curve, poor fit] |
| COc1cc(OC)c2c(-c3ccccc3)cc(=O)oc2c1C(CCN1CCOCC1)c1ccc(N(C)C)cc1 (configuration not stated) | – | inconclusive: 14.6 µM [falling, partial curve, poor fit] |
| COc1ccc(F)cc1S(=O)(=O)NCCc1sc2nc(-c3ccc(F)cc3)nn2c1C | – | inconclusive: 6.51 µM [falling, partial curve, poor fit] |
| O=C(NCCc1ccccc1)c1cccc(Br)c1 | inactive: 1.43% | – |

| Compound | activity change, negative = cytotoxicity | Potency |
| --- | --- | --- |
| COc1cc(NC(=O)c2ccc([N+](=O)[O-])o2)ccc1NC(=O)c1cccs1 | – | active: 23.1 µM |
| COc1ccc(CNC(=O)CN2C(=O)c3cccnc3Oc3ccc(C)cc32)cc1 | inactive: 1.46% | – |
| O=S(=O)(NCc1cn2ccsc2n1)c1ccc(Oc2ccccc2)cc1 | – | inconclusive: 9.2 µM [falling, partial curve, poor fit] |
| CCOC(=O)c1cc2sccc2n1CC(=O)Nc1ccc(OC)cc1 | – | inconclusive: 1.84 µM [falling, partial curve] |
| O=[N+]([O-])c1ccc(Oc2ccc(-c3nnco3)cc2)c(Cl)c1 | – | inconclusive: 16.4 µM [falling, partial curve, poor fit] |
| O=C(Cc1n[nH]c(=O)c2ccccc12)OCC(=O)c1ccc2c(c1)OCCO2 | – | inconclusive: 29.1 µM [falling, single point] |
| CCCCOc1ccccc1C(=O)N(Cc1ccc(C)o1)C1CCS(=O)(=O)C1 (configuration not stated) | – | inactive |
| COc1cc(C(CCN2CCCC(C)C2)c2c(OC)cc(OC)c3c(C)cc(=O)oc23)cc(OC)c1OC (configuration not stated) | – | inconclusive: 20.6 µM [falling, partial curve, poor fit] |
| Cc1cccc(NS(=O)(=O)c2ccc(NC(=O)CN(c3cc([N+](=O)[O-])ccc3C)S(C)(=O)=O)cc2)c1 | – | inconclusive: 10.3 µM [falling, partial curve] |
| Cn1cc(C(=O)c2ccc(Cl)cc2Cl)cc1C(=O)N/N=C(\N)COc1ccc(Cl)cc1Cl | – | inconclusive: 29.1 µM [falling, single point] |
| COc1ccc2cc(-c3nc4ccc(C(=O)O)cc4[nH]3)c(=O)oc2c1 | – | inconclusive: 10.3 µM [activator, partial curve] |
| C=Cc1ccc(Cn2nc(-c3ccc(C)c(S(=O)(=O)N(CC)CC)c3)ccc2=O)cc1 | inactive: -5.16% | – |
| CCOc1cc(CO)cc(Br)c1OCC(N)=O | – | inconclusive: 29.1 µM [activator, partial curve, poor fit] |
| NS(=O)(=O)c1ccc(N2N=C(c3ccccc3)CC2c2cccc(F)c2)cc1 (configuration not stated) | inactive: -11.8% | – |
| CCNc1sc(C(=O)c2cccs2)c(N)c1C#N | – | inconclusive: 20.6 µM [falling, partial curve, poor fit] |
| CN1CCc2nc(SCCOc3ccccc3)c(C#N)cc2C1 | – | inconclusive: 29.1 µM [activator, single point] |
| CCOc1ccccc1NC(=O)c1c(NC(=O)c2cccc(C)c2)sc2c1CCCC2 | inactive: -0.888% | – |
| CCN(CC)C(=S)Sc1c(-c2ccccc2)c2cc(Cl)ccc2[nH]c1=O | – | inconclusive: 29.1 µM [falling, single point] |
| Cn1cc(Cl)c(C(=O)OCC(=O)Nc2nc(-c3ccc(Br)cc3)cs2)n1 | inactive: -3.61% | – |
| CNc1cc(N2CCN(S(=O)(=O)N(C)C)CC2)ccc1[N+](=O)[O-] | – | inconclusive: 18.4 µM [falling, single point] |
| O=C(CSc1nnc(-c2cccnc2)n1-c1ccc(SC(F)F)cc1)N1CCCc2ccccc21 | – | inconclusive: 20.6 µM [activator, single point] |

Shown bar-delimited: part of the list above
Compound | activity change, negative = cytotoxicity | Potency
O=[N+]([O-])c1ccc(Oc2ccc(-c3nnco3)cc2)c(Cl)c1 | – | inconclusive: 16.4 µM [falling, partial curve, poor fit]
O=C(Cc1n[nH]c(=O)c2ccccc12)OCC(=O)c1ccc2c(c1)OCCO2 | – | inconclusive: 29.1 µM [falling, single point]
CCCCOc1ccccc1C(=O)N(Cc1ccc(C)o1)C1CCS(=O)(=O)C1 (configuration not stated) | – | inactive
